Source: PubChem BioAssay AID1159578 (Peter MacCallum Cancer Centre, 2015)
Test: 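Genome-wide hunt for genes controlling movement of lymphatic endothelial cells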 (primary screen). Cells: human lymphatic endothelial cells. Reagent: siRNA pool against human genes, 40 nM. Duration: 48 h after transfection. Read-out: 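Cells stained with dye and imaged after a scratch; covered wound area and nuclei counted, duplicates averaged, migration set against mock wells and turned into a robust z-score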. Direction: migration robust z-score: higher = faster migration into the scratch; migration relative to mock: higher = more scratch area covered than mock; nuclei per well: higher = more cells in the well. Call rule: 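Migration changed when robust z exceeds 2 or falls below -2 and mean nuclei number is at least 3300; otherwise not called changed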. Meaning of the calls: active = migration changed; inactive = no migration change, or too few cells.
Here is a random part of about 18,000 deposited reagents. Of all reagents, about 1,030 (5.7%) got an active call. 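Inactive calls also include pools with fewer than 3300 nuclei, whose migration was not assessed.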 The raw values are shown without normalisation.

gene knocked down	migration robust z-score	migration class with cell-count check	migration relative to mock	nuclei per well, duplicate mean	call
FBXO38 (F-box protein 38)	-0.62	migration z between -2 and 2; enough cells	0.69	5724	inactive
ATP7B (ATPase copper transporting beta)	-0.52	migration z between -2 and 2; enough cells	0.71	5902	inactive
PAX7 (paired box 7)	-1.6	migration z between -2 and 2; enough cells	0.5	4938	inactive
RPL36A (ribosomal protein L36a)	-0.52	migration z between -2 and 2; enough cells	0.74	6064	inactive
C19orf25 (chromosome 19 open reading frame 25)	0.88	migration z between -2 and 2; enough cells	1.12	6498	inactive
ADCK5 (aarF domain containing kinase 5)	0.08	migration z between -2 and 2; enough cells	0.82	5622	inactive
ETFA (electron transfer flavoprotein subunit alpha)	-0.94	migration z between -2 and 2; enough cells	0.62	3941	inactive
NIPA1 (NIPA magnesium transporter 1)	-2.54	under 3300 nuclei; migration not judged	0.24	3010	inactive
AR (androgen receptor)	-0.49	migration z between -2 and 2; enough cells	0.71	7074	inactive
COL6A3 (collagen type VI alpha 3 chain)	0.3	migration z between -2 and 2; enough cells	0.96	5108	inactive
NMUR1 (neuromedin U receptor 1)	-0.47	migration z between -2 and 2; enough cells	0.72	5888	inactive
CCL7 (C-C motif chemokine ligand 7)	-1.22	migration z between -2 and 2; enough cells	0.57	4913	inactive
NOMO1 (NODAL modulator 1)	0.32	migration z between -2 and 2; enough cells	0.96	5953	inactive
LINC00207 (long independently transcribed non-coding RNA 207)	0.72	migration z between -2 and 2; enough cells	1.07	6814	inactive
TRIM75 (tripartite motif containing 75)	1.4	migration z between -2 and 2; enough cells	1.08	6524	inactive
NFASC (neurofascin)	0.05	migration z between -2 and 2; enough cells	0.9	5832	inactive
RSBN1 (round spermatid basic protein 1)	0.18	migration z between -2 and 2; enough cells	0.93	6253	inactive
ARRB2 (arrestin beta 2)	1.57	migration z between -2 and 2; enough cells	1.29	6624	inactive
PRSS21 (serine protease 21)	-0.08	migration z between -2 and 2; enough cells	0.79	5142	inactive
SLC3A2	2.39	migration z above 2; enough cells	1.26	6376	active
COX20 (cytochrome c oxidase assembly factor COX20)	1.79	migration z between -2 and 2; enough cells	1.35	6240	inactive
ADAMTS3 (ADAM metallopeptidase with thrombospondin type 1 motif 3)	-0.5	migration z between -2 and 2; enough cells	0.71	5116	inactive
NUP133 (nucleoporin 133)	1.22	migration z between -2 and 2; enough cells	1.2	5941	inactive
KCNV2	0.24	migration z between -2 and 2; enough cells	0.85	5066	inactive
CPSF6 (cleavage and polyadenylation specific factor 6)	0.48	migration z between -2 and 2; enough cells	1.01	6464	inactive
MED12 (mediator complex subunit 12)	0.8	migration z between -2 and 2; enough cells	0.96	6298	inactive
PCDH11X (protocadherin 11 X-linked)	-2.61	migration z below -2; enough cells	0.21	5298	active
DCTN6 (dynactin subunit 6)	-2.31	migration z below -2; enough cells	0.29	5334	active
MTARC1 (mitochondrial amidoxime reducing component 1)	-3.22	migration z below -2; enough cells	0.05	6429	active
CDH1 (cadherin 1)	0	migration z between -2 and 2; enough cells	0.88	5846	inactive
TRPT1 (tRNA phosphotransferase 1)	-1.05	migration z between -2 and 2; enough cells	0.61	5796	inactive
VMO1 (vitelline membrane outer layer 1 homolog)	-0.11	migration z between -2 and 2; enough cells	0.86	7512	inactive
RFX1 (regulatory factor X1)	-0.16	migration z between -2 and 2; enough cells	0.77	5334	inactive
B9D2 (B9 domain containing 2)	-0.81	migration z between -2 and 2; enough cells	0.68	6444	inactive
HOXD4 (homeobox D4)	0.26	migration z between -2 and 2; enough cells	0.86	6028	inactive
THUMPD2 (THUMP domain 2 tRNA and snRNA guanosine methyltransferase)	-0.83	migration z between -2 and 2; enough cells	0.64	3935	inactive
ANKRD33 (ankyrin repeat domain 33)	0.2	migration z between -2 and 2; enough cells	0.94	6162	inactive
PLEKHG4B (pleckstrin homology and RhoGEF domain containing G4B)	0.54	migration z between -2 and 2; enough cells	1.02	5834	inactive
VPS36 (vacuolar protein sorting 36 homolog)	0.94	migration z between -2 and 2; enough cells	1.13	6406	inactive
B3GLCT (beta 3-glucosyltransferase)	1.16	migration z between -2 and 2; enough cells	1.19	6579	inactive
ADARB2 (adenosine deaminase RNA specific B2 (inactive))	-0.54	migration z between -2 and 2; enough cells	0.74	5626	inactive
INPP5D (inositol polyphosphate-5-phosphatase D)	-1.66	migration z between -2 and 2; enough cells	0.48	4778	inactive
NPTX1 (neuronal pentraxin 1)	-0.5	migration z between -2 and 2; enough cells	0.75	5377	inactive
FRMD7 (FERM domain containing 7)	1.08	migration z between -2 and 2; enough cells	1.17	4590	inactive
PROK2 (prokineticin 2)	0.16	migration z between -2 and 2; enough cells	0.93	4699	inactive
BEX4 (brain expressed X-linked 4)	-0.73	migration z between -2 and 2; enough cells	0.7	5799	inactive
RBM44 (RNA binding motif protein 44)	-0.58	migration z between -2 and 2; enough cells	0.74	5108	inactive
LHX3 (LIM homeobox 3)	-0.57	migration z between -2 and 2; enough cells	0.7	5730	inactive
ADAM23 (ADAM metallopeptidase domain 23)	-0.02	migration z between -2 and 2; enough cells	0.8	6515	inactive
MSRA (methionine sulfoxide reductase A)	0.83	migration z between -2 and 2; enough cells	0.96	6157	inactive
ACKR3 (atypical chemokine receptor 3)	-0.05	migration z between -2 and 2; enough cells	0.8	3642	inactive
PLXNB1 (plexin B1)	0.83	migration z between -2 and 2; enough cells	0.97	5241	inactive
PAN3 (poly(A) specific ribonuclease subunit PAN3)	-0.64	migration z between -2 and 2; enough cells	0.72	5732	inactive
CMTM8 (CKLF like MARVEL transmembrane domain containing 8)	-2.74	migration z below -2; enough cells	0.19	3808	active
OTOP2 (otopetrin 2)	-0.98	migration z between -2 and 2; enough cells	0.63	5345	inactive
GLA (galactosidase alpha)	1.19	migration z between -2 and 2; enough cells	1.04	5177	inactive
ABRA (actin binding Rho activating protein)	0.1	migration z between -2 and 2; enough cells	0.82	5528	inactive

8 entries from above, showing only “nuclei per well, duplicate mean”.
NOMO1 (NODAL modulator 1)	5953
LINC00207 (long independently transcribed non-coding RNA 207)	6814
TRIM75 (tripartite motif containing 75)	6524
NFASC (neurofascin)	5832
RSBN1 (round spermatid basic protein 1)	6253
ARRB2 (arrestin beta 2)	6624
PRSS21 (serine protease 21)	5142
SLC3A2	6376
